From publication PMC3812651
Results are given in words; binding and its absence hold for the method and conditions named. Binding seen in cells or lysates may run through a third protein. Some results given as binding are weak or reduced against the parent protein; the word gives no strength.

Chains of the proteins cited; added tags and fusions are not shown. Lines headed by an entry give the natural chain unless they say otherwise; changes in a name come on top.
UniProt Q8N6T7: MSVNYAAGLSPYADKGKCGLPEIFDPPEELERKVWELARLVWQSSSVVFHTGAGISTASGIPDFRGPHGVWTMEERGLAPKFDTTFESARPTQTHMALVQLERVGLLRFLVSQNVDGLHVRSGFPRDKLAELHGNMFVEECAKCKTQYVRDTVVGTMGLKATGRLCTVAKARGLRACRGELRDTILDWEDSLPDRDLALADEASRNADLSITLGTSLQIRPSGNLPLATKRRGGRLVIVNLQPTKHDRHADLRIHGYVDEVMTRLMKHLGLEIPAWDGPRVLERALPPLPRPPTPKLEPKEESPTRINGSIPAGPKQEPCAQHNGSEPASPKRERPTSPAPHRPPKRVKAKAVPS
UniProt Q13283: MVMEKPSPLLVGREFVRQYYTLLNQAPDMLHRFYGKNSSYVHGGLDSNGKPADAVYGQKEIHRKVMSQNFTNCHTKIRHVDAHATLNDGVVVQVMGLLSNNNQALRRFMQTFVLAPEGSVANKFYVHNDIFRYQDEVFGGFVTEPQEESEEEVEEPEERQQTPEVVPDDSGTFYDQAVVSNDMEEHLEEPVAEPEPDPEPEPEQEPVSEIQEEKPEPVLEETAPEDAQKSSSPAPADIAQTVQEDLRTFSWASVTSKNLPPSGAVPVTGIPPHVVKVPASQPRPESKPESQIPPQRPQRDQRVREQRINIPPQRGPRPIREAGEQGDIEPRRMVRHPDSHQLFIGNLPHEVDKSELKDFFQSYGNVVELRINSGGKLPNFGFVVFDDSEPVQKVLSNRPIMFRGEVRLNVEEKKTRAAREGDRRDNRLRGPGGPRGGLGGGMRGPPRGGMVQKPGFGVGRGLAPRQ

How the values were obtained:
[1] = target: endogenous SIRT6 (human cells) (human (endogenous in 293T)) (UniProt Q8N6T7); test: co-IP; endogenous SIRT6 IP from 293 (293T) cell lysate in RIPA buffer (50 mM TrisHCl pH7.4, 150 mM NaCl, 2 mM EDTA, 1% NP-40, 0.1% SDS), western
[2] = target: SIRT6 with a C-terminal FLAG tag, stably expressed in HeLa S3 cells (UniProt Q8N6T7); test: co-IP; SIRT6-FLAG IP from cytoplasmic (S100), nuclear extract (NE) and chromatin enriched (P3) fractions, western for G3BP1
[3] = target: Flag-tagged SIRT6, wild type, expressed in 293T (293) cells (UniProt Q8N6T7); test: co-IP; FLAG-SIRT6 (wild type and mutants) IP from 293 cell lysate in RIPA buffer (50 mM TrisHCl pH7.4, 150 mM NaCl, 2 mM EDTA, 1% NP-40, 0.1% SDS), western
[4] = target: 3X-Flag-tagged SIRT6 mutant G60A (UniProt Q8N6T7); test: as above
[5] = target: SIRT6 with a C-terminal FLAG tag, stably expressed in HeLa S3 cells (UniProt Q8N6T7); test: co-IP; SIRT6-FLAG IP from HeLa nuclear extract, western for G3BP1; also after DNAse and RNAse treatment of the nuclear extract and at 1 M NaCl

binding [1]: binds
binding [2]: binds
binding [3]: binds
binding [4]: binds
binding [5]: binds
Substance: G3BP1 (GTPase Activating Protein Binding Protein 1), endogenous in human cells (from UniProt Q13283 1-466)
